# Assay results: the supplement of paper PMC9454738
# Structures can show the parent of a compound that is named as a salt. Some of the results follow. Single values are uncertain here, since repeats match poorly.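 Assays used MDA-MB-231 triple-negative breast cancer cells and their brain-metastatic line MDA-MB-231BRM, stably carrying empty vector, full-length GLI1 or truncated tGLI1. After 48 h, viability was read with CellTiter-Blue and normalized to 1% DMSO vehicle. tGLI1 selectivity meant viability fell 20% more in tGLI1 cells than in vector and GLI1 cells.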
# Experiments:
# Assay in all cases: cell viability relative to vehicle (DMSO) control (fraction); higher = more viable cells (less growth inhibition)
# Settings in all cases: treatment time 48 h
# MDA-MB-231 GLI1 = tested on: MDA-MB-231 GLI1
# MDA-MB-231 Vector = tested on: MDA-MB-231 Vector
# MDA-MB-231 tGLI1 = tested on: MDA-MB-231 tGLI1
# MDA-MB-231BRM GLI1 = tested on: MDA-MB-231BRM GLI1
# MDA-MB-231BRM Vector = tested on: MDA-MB-231BRM Vector
# MDA-MB-231BRM tGLI1 = tested on: MDA-MB-231BRM tGLI1
SMILES,cell viability (MDA-MB-231 GLI1; 0.05 µM),cell viability (MDA-MB-231 GLI1; 0.5 µM),cell viability (MDA-MB-231 GLI1; 5 µM),cell viability (MDA-MB-231 Vector; 0.05 µM),cell viability (MDA-MB-231 Vector; 0.5 µM),cell viability (MDA-MB-231 Vector; 5 µM),cell viability (MDA-MB-231 tGLI1; 0.05 µM),cell viability (MDA-MB-231 tGLI1; 0.5 µM),cell viability (MDA-MB-231 tGLI1; 5 µM),cell viability (MDA-MB-231BRM GLI1; 0.05 µM),cell viability (MDA-MB-231BRM GLI1; 0.5 µM),cell viability (MDA-MB-231BRM GLI1; 5 µM),cell viability (MDA-MB-231BRM Vector; 0.05 µM),cell viability (MDA-MB-231BRM Vector; 0.5 µM),cell viability (MDA-MB-231BRM Vector; 5 µM),cell viability (MDA-MB-231BRM tGLI1; 0.05 µM),cell viability (MDA-MB-231BRM tGLI1; 0.5 µM),cell viability (MDA-MB-231BRM tGLI1; 5 µM)
O=C1NC(=O)C(c2ccccc2[N+](=O)[O-])=C1Nc1ccc(O)c(Cl)c1,1.12,1.22,1.27,1.13,1.21,0.745,1.22,1.13,0.89,1.02,1.02,0.868,1.1,1.02,0.891,1.03,1.05,0.556
NC(=O)c1ccc(N(C(N)=O)c2c(F)cccc2F)nc1-c1ccc(F)cc1F,1.31,1.57,1.17,1.41,1.43,1.48,1.3,1.45,1.51,1.03,0.952,0.965,0.988,1.06,1.05,1.02,1.03,1
CN(C)Cc1cccc(N/C(=C2\C(=O)Nc3cc(C(N)=O)ccc32)c2ccccc2)c1,1.41,1.38,1.58,1.08,1.39,1.18,0.533,1.27,1.55,1.17,1.16,0.855,0.772,1.06,1.02,0.581,1.12,0.939
FC(F)(F)c1ccc(/C=C/c2nc(COc3ccc(CCCCn4ccnn4)cc3)co2)cc1 [Mubritinib (TAK 165)],1.6,0.861,1.74,1.15,1.5,1.66,1.42,1.46,1.5,1.28,1.24,1.03,0.734,1.17,1.1,0.645,1.16,1.06
O=C(c1cccc(Cl)c1F)N1CCN(Cc2cccc(Nc3nccs3)n2)CC1,0.952,1.2,0.674,1.09,1.13,0.777,0.913,1.21,0.76,0.991,0.988,0.971,1.02,1.12,0.997,1.04,1.02,0.953
CNC(=O)c1cc(Oc2ccc(NC(=O)Nc3ccc(Cl)c(C(F)(F)F)c3)cc2)ccn1 [Sorafenib (Nexavar)],1.42,0.969,0.884,1.42,1.19,0.786,1.43,0.948,0.751,1.1,1,0.881,1.06,1,0.908,1.06,1.02,0.932
CN1CC[C@H](c2c(O)cc(O)c3c(=O)cc(-c4ccccc4Cl)oc23)[C@H](O)C1 [Flavopiridol HCl],0.43,0.621,0.156,0.568,0.276,0.299,0.506,0.182,0.189,1.14,1.06,1.07,1.09,1.08,1.04,0.958,1.01,0.962
CC(C)(C)c1cc(C(C)(C)C)c(NC(=O)c2c[nH]c3ccccc3c2=O)cc1O [Ivacaftor (VX-770)],1.11,0.979,0.458,0.959,1.15,0.344,0.975,1,0.308,0.95,0.999,0.757,0.937,0.881,0.855,0.977,0.963,0.901
CN1CC2c3ccccc3Oc3ccc(Cl)cc3C2C1 (stereo unspecified) [Asenapine],1.05,1.11,1.01,1.43,1.18,1.08,1.19,1.14,0.914,1.1,1.04,0.951,1.02,1.04,0.958,1.06,1.01,1.04
Cc1[nH]c(/C=C2\C(=O)Nc3ccc(S(=O)(=O)Cc4c(Cl)cccc4Cl)cc32)c(C)c1C(=O)N1CCC[C@@H]1CN1CCCC1,1.4,1.71,-0.23,1.47,1.23,-0.104,1.25,1.5,-0.169,0.925,0.855,0.315,0.919,0.855,0.428,0.892,0.851,0.3
N#Cc1c(O)c2c(-c3ccc(-c4ccccc4O)cc3)csc2[nH]c1=O,1.32,1.25,1.25,1.31,1.33,1.81,1.52,1.17,1.19,1.02,0.975,0.932,1.07,1.14,0.959,1.06,1.09,0.94
C#Cc1cccc(Nc2ncnc3cc(OC)c(OCCCCCCC(=O)NO)cc23)c1,0.82,0.848,-0.147,1.09,0.616,-0.066,0.988,0.709,-0.142,1.01,1.23,1.19,0.939,1.17,1.15,0.991,1.18,1.04
OCCn1cc(-c2ccc3c(c2)CC/C3=N\O)c(-c2ccncc2)n1,1.52,1.48,1.2,1.41,1.15,0.698,1.25,1.35,0.882,0.974,1.1,0.979,0.97,1.04,1.04,1.03,0.974,0.989
CCC[C@H](NC(=O)/C(C#N)=C/c1cccc(Br)n1)c1ccccc1 [Degrasyn (WP1130)],1.16,1.03,-0.0548,0.971,1.32,-0.0316,1.23,0.9,-0.0475,0.997,1.09,1.06,1.03,1.05,0.907,0.989,1.07,1.1
COc1cc(N2CCC(N)CC2)ccc1Nc1ncc(Cl)c(-c2c[nH]c3ccccc23)n1,1.1,1.31,-0.181,1.26,1.18,-0.12,1.46,1.13,-0.198,1.01,0.892,0.515,1.12,1.01,0.575,0.955,0.956,0.442
CCN(CCCOc1ccc2c(Nc3cc(CC(=O)Nc4cccc(F)c4)[nH]n3)ncnc2c1)CCOP(=O)(O)O [Barasertib (AZD1152-HQPA)],1.08,1.23,0.734,1.27,0.879,0.536,0.948,1.1,1.14,0.944,0.973,0.946,0.957,0.91,1.06,1.01,0.923,0.974
Cc1cc(N2CCOCC2)cc2[nH]c(-c3c(NC[C@@H](O)c4cccc(Cl)c4)cc[nH]c3=O)nc12,1.01,1.44,0.225,0.964,0.786,0.201,0.767,0.952,0.196,0.887,0.856,0.793,0.879,0.511,0.773,0.905,0.833,0.664
O=C(/C=C/c1ccc(O)c(O)c1)c1ccc(O)cc1O [Butein],2.02,3.07,1.59,1.2,1.26,0.74,1.38,1.27,1.03,0.833,0.755,0.558,0.86,0.809,0.638,1.05,1.06,1.04
COc1cc2ncnc(Nc3ccc(F)c(Cl)c3)c2cc1NC(=O)/C=C/CN1CCCCC1,1.37,1.21,-0.0548,1.25,1,0.0134,1.42,1.19,-0.0604,1.01,0.939,0.921,1.05,0.959,0.892,1.03,1.04,0.83
Nc1nccc(Oc2ccc(NC(=O)c3c[nH]cc(-c4ccc(F)cc4)c3=O)cc2F)c1Cl,1.44,1.52,1.44,1.92,1.22,1.09,1.16,0.826,1.37,1.09,1.11,0.947,0.681,0.986,1.03,1.03,1.08,0.94
CN1CCN(CCOc2cc(OC3CCOCC3)c3c(Nc4c(Cl)ccc5c4OCO5)ncnc3c2)CC1 [Saracatinib (AZD0530)],1.09,1.31,0.617,1.02,0.912,0.447,0.803,1.09,0.475,0.866,0.863,0.887,0.798,0.826,0.869,0.926,0.853,0.756
CNC(=O)Nc1ccc(-c2nc(N3CC4CCC(C3)O4)c3cnn(C4CCC5(CC4)OCCO5)c3n2)cc1,0.55,0.369,0.229,0.484,0.37,0.329,0.521,0.331,0.218,0.899,0.913,0.764,0.964,0.969,0.751,0.932,0.861,0.562
Cc1cc(Nc2cc(CN3CCOCC3)c3nc(C)c(Cc4ccc(Cl)cc4F)n3n2)n[nH]1,1.2,0.989,0.621,1.25,0.793,0.461,0.94,0.876,0.511,1.15,1.06,0.733,0.778,0.945,0.775,0.5,1.04,0.705
Cc1cc(Nc2nc(N[C@@H](C)c3ncc(F)cn3)ncc2Cl)[nH]n1,1.42,1.31,0.706,1.81,1.19,0.644,1.25,1.19,0.753,1.17,1.1,0.98,0.668,1,1.04,1.09,0.727,0.928
CNC(=O)c1nn(C)c2c1C(C)(C)Cc1cnc(Nc3ccc(N4CCN(C)CC4)cc3)nc1-2,1.02,0.71,0.101,1.1,0.778,0.216,1.37,0.726,0.147,0.983,0.999,0.868,0.919,0.965,0.814,0.998,1.05,0.777
C=CC(=O)N1CCC[C@@H](n2nc(-c3ccc(Oc4ccccc4)cc3)c3c(N)ncnc32)C1,1.3,1.34,0.795,1.22,1.29,1.31,1.55,1.08,0.896,0.986,0.963,0.812,1.05,1.1,0.81,1.07,1.06,0.758
COc1ccc(-c2ccc3cc(C(=O)O)ccc3c2)cc1C12CC3CC(CC(C3)C1)C2 [Adapalene],1.29,1.08,0.976,0.917,1.83,0.576,1.19,1.2,0.758,1.01,0.93,0.843,1.01,0.884,0.964,0.973,0.998,0.996

# Given tab-delimited: part of the list above
SMILES	cell viability (MDA-MB-231 GLI1; 0.05 µM)	cell viability (MDA-MB-231 GLI1; 0.5 µM)	cell viability (MDA-MB-231 GLI1; 5 µM)	cell viability (MDA-MB-231 Vector; 0.05 µM)	cell viability (MDA-MB-231 Vector; 0.5 µM)	cell viability (MDA-MB-231 Vector; 5 µM)	cell viability (MDA-MB-231 tGLI1; 0.05 µM)	cell viability (MDA-MB-231 tGLI1; 0.5 µM)	cell viability (MDA-MB-231 tGLI1; 5 µM)	cell viability (MDA-MB-231BRM GLI1; 0.05 µM)	cell viability (MDA-MB-231BRM GLI1; 0.5 µM)	cell viability (MDA-MB-231BRM GLI1; 5 µM)	cell viability (MDA-MB-231BRM Vector; 0.05 µM)	cell viability (MDA-MB-231BRM Vector; 0.5 µM)	cell viability (MDA-MB-231BRM Vector; 5 µM)	cell viability (MDA-MB-231BRM tGLI1; 0.05 µM)	cell viability (MDA-MB-231BRM tGLI1; 0.5 µM)	cell viability (MDA-MB-231BRM tGLI1; 5 µM)
NC(=O)c1ccc(N(C(N)=O)c2c(F)cccc2F)nc1-c1ccc(F)cc1F	1.31	1.57	1.17	1.41	1.43	1.48	1.3	1.45	1.51	1.03	0.952	0.965	0.988	1.06	1.05	1.02	1.03	1
C=CC(=O)N1CCC[C@@H](n2nc(-c3ccc(Oc4ccccc4)cc3)c3c(N)ncnc32)C1	1.3	1.34	0.795	1.22	1.29	1.31	1.55	1.08	0.896	0.986	0.963	0.812	1.05	1.1	0.81	1.07	1.06	0.758
